{"source": "PubChem BioAssay AID686938 (Drosophila RNAi Screening Center, 2013)", "purpose": "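Fly genes required for calcium entry once internal stores are emptied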 (primary screen)", "cells": "Drosophila S2R+ cells", "knock-down reagent": "long dsRNA against Drosophila genes, about 0.25 µg dsRNA per well, roughly 10,000 cells", "timing": "5 days of knock-down before the calcium assay", "treatment": "thapsigargin (SERCA pump blocker) to empty calcium stores; entry signal taken 4 min after adding it", "measurement": "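Per-well fluo-4 fluorescence in two replicates, unnormalised, measured in resting cells and 4 min after store depletion by the SERCA blocker thapsigargin; ratio of the two present in few wells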", "scale": "calcium entry signal: higher = stronger calcium signal after store depletion; entry to resting ratio: higher = more calcium entry relative to resting level; resting calcium signal: higher = higher resting calcium signal", "units": "calcium entry signal in fluorescence units; resting calcium signal in fluorescence units", "active means": "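Hit if the duplicate-averaged plate z-score for entry over resting signal is under −3; wells with weak total dye signal (Fmax z < −2) or more than 5 off-targets removed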", "meaning of the calls": "active = strongly reduced calcium entry; inactive = no strong reduction", "note": "The deposit covers about 23,000 reagents; below is an unselected part of those with a known target gene and a result. Over the whole deposit, 75 (0.33%) were called active. 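Raw plate signals without normalisation; calls rest on plate z-scores that were not deposited; ratio present for only 364 wells.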 Unmarked entries are inactive. Names joined by + are all predicted targets of the reagent. Not given: the dose of the treatment."}
{"Gene":"Tmem63 (GeneID 35779)","DRSC id":"DRSC06063","calcium entry signal, replicate 1":2.93e7,"calcium entry signal, replicate 2":3.61e7,"resting calcium signal, replicate 1":1.39e7,"resting calcium signal, replicate 2":1.56e7}
{"Gene":"CG6126 (GeneID 41967)","DRSC id":"DRSC15971","calcium entry signal, replicate 1":5.44e7,"calcium entry signal, replicate 2":2.49e7,"resting calcium signal, replicate 1":2.40e7,"resting calcium signal, replicate 2":1.18e7}
{"Gene":"to (GeneID 43036)","DRSC id":"DRSC17086","calcium entry signal, replicate 1":3.64e7,"calcium entry signal, replicate 2":5.44e7,"resting calcium signal, replicate 1":1.78e7,"resting calcium signal, replicate 2":2.20e7}
{"Gene":"Taf10b + Taf10","DRSC id":"DRSC00793","calcium entry signal, replicate 1":3.55e7,"calcium entry signal, replicate 2":4.07e7,"resting calcium signal, replicate 1":1.62e7,"resting calcium signal, replicate 2":1.64e7}
{"Gene":"CG14050 (GeneID 31218)","DRSC id":"DRSC18594","calcium entry signal, replicate 1":4.68e7,"calcium entry signal, replicate 2":4.83e7,"entry to resting ratio":2.2,"resting calcium signal, replicate 1":2.12e7,"resting calcium signal, replicate 2":2.18e7}
{"Gene":"CG34129 (GeneID 43181)","DRSC id":"DRSC15960","calcium entry signal, replicate 1":2.73e7,"calcium entry signal, replicate 2":7.28e7,"resting calcium signal, replicate 1":1.55e7,"resting calcium signal, replicate 2":3.42e7}
{"Gene":"flw (GeneID 44289)","DRSC id":"DRSC17992","calcium entry signal, replicate 1":2.33e7,"calcium entry signal, replicate 2":3.21e7,"resting calcium signal, replicate 1":1.17e7,"resting calcium signal, replicate 2":1.58e7}
{"Gene":"flw (GeneID 44289)","DRSC id":"DRSC18774","calcium entry signal, replicate 1":1.92e7,"calcium entry signal, replicate 2":2.25e7,"resting calcium signal, replicate 1":1.05e7,"resting calcium signal, replicate 2":1.11e7}
{"Gene":"Karl (GeneID 32131)","DRSC id":"DRSC19883","calcium entry signal, replicate 1":2.94e7,"calcium entry signal, replicate 2":3.36e7,"resting calcium signal, replicate 1":1.42e7,"resting calcium signal, replicate 2":1.39e7}
{"Gene":"CG14618 (GeneID 33134)","DRSC id":"DRSC20631","calcium entry signal, replicate 1":4.43e7,"calcium entry signal, replicate 2":4.76e7,"resting calcium signal, replicate 1":2.02e7,"resting calcium signal, replicate 2":1.95e7}
{"Gene":"srp (GeneID 41944)","DRSC id":"DRSC13125","calcium entry signal, replicate 1":2.52e7,"calcium entry signal, replicate 2":3.66e7,"resting calcium signal, replicate 1":1.18e7,"resting calcium signal, replicate 2":1.65e7}
{"Gene":"srp (GeneID 41944)","DRSC id":"DRSC17068","calcium entry signal, replicate 1":3.15e7,"calcium entry signal, replicate 2":7.36e7,"resting calcium signal, replicate 1":1.89e7,"resting calcium signal, replicate 2":7.75e7}
{"Gene":"srp (GeneID 41944)","DRSC id":"DRSC23166","calcium entry signal, replicate 1":3.55e7,"calcium entry signal, replicate 2":3.60e7,"resting calcium signal, replicate 1":1.77e7,"resting calcium signal, replicate 2":1.54e7}

Sorted by “resting calcium signal, replicate 1” (lowest first): some entries from above.
{"Gene":"Taf10b + Taf10","DRSC id":"DRSC00793","calcium entry signal, replicate 1":3.55e7,"calcium entry signal, replicate 2":4.07e7,"resting calcium signal, replicate 1":1.62e7,"resting calcium signal, replicate 2":1.64e7}
{"Gene":"to (GeneID 43036)","DRSC id":"DRSC17086","calcium entry signal, replicate 1":3.64e7,"calcium entry signal, replicate 2":5.44e7,"resting calcium signal, replicate 1":1.78e7,"resting calcium signal, replicate 2":2.20e7}
